No constants are given. Whether binding was seen depends on the method and setting. Binding seen in cells or lysates may run through a third protein. Binding calls can cover weak binding; strength is not graded here.
Target: integrin α5β1 (human (endogenous in U87))
Test: co-IP; ProFound Mammalian Co-Immunoprecipitation Kit (Pierce); U87 cells lysed with M-per reagent; lysates incubated with mouse anti-human βig-h3 mAb, or anti-α5 mAb (P1D6) and anti-β1 mAb (3S3); bound proteins collected on coupling gel, eluted and blotted for integrin α5β1 or βig-h3; both directions

binding: binds
B1: Transforming growth factor (TGF)-β-inducible gene-h3 (βig-h3) (protein, UniProt Q15582 24-683)
chain: GPAKSPYQLVLQHSRLRGRQHGPNVCAVQKVIGTNRKYFTNCKQWYQRKICGKSTVISYECCPGYEKVPGEKGCPAALPLSNLYETLGVVGSTTTQLYTDRTEKLRPEMEGPGSFTIFAPSNEAWASLPAEVLDSLVSNVNIELLNALRYHMVGRRVLTDELKHGMTLTSMYQNSNIQIHHYPNGIVTVNCARLLKADHHATNGVVHLIDKVISTITNNIQQIIEIEDTFETLRAAVAASGLNTMLEGNGQYTLLAPTNEAFEKIPSETLNRILGDPEALRDLLNNHILKSAMCAEAIVAGLSVETLEGTTLEVGCSGDMLTINGKAIISNKDILATNGVIHYIDELLIPDSAKTLFELAAESDVSTAIDLFRQAGLGNHLSGSERLTLLAPLNSVFKDGTPPIDAHTRNLLRNHIIKDQLASKYLYHGQTLETLGGKKLRVFVYRNSLCIENSCIAAHDKRGRYGTLFTMDRVLTPPMGTVMDVLKGDNRFSMLVAAIQSAGLTETLNREGVYTVFAPTNEAFRALPPRERSRLLGDAKELANILKYHIGDEILVSGGIGALVRLKSLQGDKLEVSLKNNVVSVNKEPVAEPDIMATNGVVHVITNVLQPPANRPQERGDELADSALEIFKQASAFSRASQRSVRLAPVYQKLLERMKH

— article PMC3357424
